The chains behind the UniProt entries cited, without tags or fusion partners. Residues count along the entry.
UniProt Q03405, residues 23-305: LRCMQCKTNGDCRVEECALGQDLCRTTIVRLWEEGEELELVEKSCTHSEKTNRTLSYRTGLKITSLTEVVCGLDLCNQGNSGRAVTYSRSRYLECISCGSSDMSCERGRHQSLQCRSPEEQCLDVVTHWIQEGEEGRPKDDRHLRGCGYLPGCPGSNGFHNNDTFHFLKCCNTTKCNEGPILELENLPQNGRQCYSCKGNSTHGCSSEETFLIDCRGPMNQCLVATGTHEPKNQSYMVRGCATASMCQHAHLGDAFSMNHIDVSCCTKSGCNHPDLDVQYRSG
UniProt P67809: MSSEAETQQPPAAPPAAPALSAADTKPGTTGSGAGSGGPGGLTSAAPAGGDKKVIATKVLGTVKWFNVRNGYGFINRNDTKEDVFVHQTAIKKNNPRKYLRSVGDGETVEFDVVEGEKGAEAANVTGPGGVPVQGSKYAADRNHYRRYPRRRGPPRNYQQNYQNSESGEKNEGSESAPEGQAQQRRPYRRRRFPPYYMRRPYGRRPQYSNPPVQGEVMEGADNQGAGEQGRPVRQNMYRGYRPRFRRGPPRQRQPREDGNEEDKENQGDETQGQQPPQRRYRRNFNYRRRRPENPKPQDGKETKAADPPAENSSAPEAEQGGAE

According to article PMC5190079:

B1: cell cycle associated protein 1 (protein, UniProt Q14444-1 1-709)
chain: MPSATSHSGSGSKSSGPPPPSGSSGSEAAAGAGAAAPASQHPATGTGAVQTEAMKQILGVIDKKLRNLEKKKGKLDDYQERMNKGERLNQDQLDAVSKYQEVTNNLEFAKELQRSFMALSQDIQKTIKKTARREQLMREEAEQKRLKTVLELQYVLDKLGDDEVRTDLKQGLNGVPILSEEELSLLDEFYKLVDPERDMSLRLNEQYEHASIHLWDLLEGKEKPVCGTTYKVLKEIVERVFQSNYFDSTHNHQNGLCEEEEAASAPAVEDQVPEAEPEPAEEYTEQSEVESTEYVNRQFMAETQFTSGEKEQVDEWTVETVEVVNSLQQQPQAASPSVPEPHSLTPVAQADPLVRRQRVQDLMAQMQGPYNFIQDSMLDFENQTLDPAIVSAQPMNPTQNMDMPQLVCPPVHSESRLAQPNQVPVQPEATQVPLVSSTSEGYTASQPLYQPSHATEQRPQKEPIDQIQATISLNTDQTTASSSLPAASQPQVFQAGTSKPLHSSGINVNAAPFQSMQTVFNMNAPVPPVNEPETLKQQNQYQASYNQSFSSQPHQVEQTELQQEQLQTVVGTYHGSPDQSHQVTGNHQQPPQQNTGFPRSNQPYYNSRGVSRGGSRGARGLMNGYRGPANGFRGGYDGYRPSFSNTPNSGYTQSQFSAPRDYSGYQRDGYQQNFKRGSGQSGPRGAPRGRGGPPRPNRGMPQMNTQQVN
B2: cysteine-rich angiogenic inducer 61 (protein, UniProt O00622 25-381)
chain: TCPAACHCPLEAPKCAPGVGLVRDGCGCCKVCAKQLNEDCSKTQPCDHTKGLECNFGASSTALKGICRAQSEGRPCEYNSRIYQNGESFQPNCKHQCTCIDGAVGCIPLCPQELSLPNLGCPNPRLVKVTGQCCEEWVCDEDSIKDPMEDQDGLLGKELGFDASEVELTRNNELIAVGKGSSLKRLPVFGMEPRILYNPLQGQKCIVQTTSWSQCSKTCGTGISTRVTNDNPECRLVKETRICEVRPCGQPVYSSLKKGKKCSKTKKSPEPVRFTYAGCLSVKKYRPKYCGSCVDGRCCTPQLTRTVKMRFRCEDGETFSKNVMMIQSCKCNYNCPHANEAAFPFYRLFNDIHKFRD
B3: tight junction protein 2 (protein, UniProt Q9UDY2-2 1-1043)
chain: MPVRGDRGFPPRRELSGWLRAPGMEELIWEQYTVTLQKDSKRGFGIAVSGGRDNPHFENGETSIVISDVLPGGPADGLLQENDRVVMVNGTPMEDVLHSFAVQQLRKSGKVAAIVVKRPRKVQVAALQASPPLDQDDRAFEVMDEFDGRSFRSGYSERSRLNSHGGRSRSWEDSPERGRPHERARSRERDLSRDRSRGRSLERGLDQDHARTRDRSRGRSLERGLDHDFGPSRDRDRDRSRGRSIDQDYERAYHRAYDPDYERAYSPEYRRGARHDARSRGPRSRSREHPHSRSPSPEPRGRPGPIGVLLMKSRANEEYGLRLGSQIFVKEMTRTGLATKDGNLHEGDIILKINGTVTENMSLTDARKLIEKSRGKLQLVVLRDSQQTLINIPSLNDSDSEIEDISEIESNRSFSPEERRHQYSDYDYHSSSEKLKERPSSREDTPSRLSRMGATPTPFKSTGDIAGTVVPETNKEPRYQEDPPAPQPKAAPRTFLRPSPEDEAIYGPNTKMVRFKKGDSVGLRLAGGNDVGIFVAGIQEGTSAEQEGLQEGDQILKVNTQDFRGLVREDAVLYLLEIPKGEMVTILAQSRADVYRDILACGRGDSFFIRSHFECEKETPQSLAFTRGEVFRVVDTLYDGKLGNWLAVRIGNELEKGLIPNKSRAEQMASVQNAQRDNAGDRADFWRMRGQRSGVKKNLRKSREDLTAVVSVSTKFPAYERVLLREAGFKRPVVLFGPIADIAMEKLANELPDWFQTAKTEPKDAGSEKSTGVVRLNTVRQIIEQDKHALLDVTPKAVDLLNYTQWFPIVIFFNPDSRQGVKTMRQRLNPTSNKSSRKLFDQANKLKKTCAHLFTATINLNSANDSWFGSLKDTIQHQQGEAVWVSEGKMEGMDDDPEDRMSYLTAMGADYLSCDSRLISDFEDTDGEGGAYTDNELDEPAEEPLVSSITRSSEPVQHEEIEIAQKHPDIYAVPIKTHKPDPGTPQHTSSRPPEPQKAPSRPYQDTRGSYGSDAEEEEYRQQLSEHSKRGYYGQSARYRDTEL
B4: DEAH (Asp-Glu-Ala-His) box polypeptide 16 (protein, UniProt O60231 1-1041)
chain: MATPAGLERWVQDELHSVLGLSERHVAQFLIGTAQRCTSAEEFVQRLRDTDTLDLSGPARDFALRLWNKVPRKAVVEKPARAAEREARALLEKNRSYRLLEDSEESSEETVSRAGSSLQKKRKKRKHLRKKREEEEEEEASEKGKKKTGGSKQQTEKPESEDEWERTERERLQDLEERDAFAERVRQRDKDRTRNVLERSDKKAYEEAQKRLKMAEEDRKAMVPELRKKSRREYLAKREREKLEDLEAELADEEFLFGDVELSRHERQELKYKRRVRDLAREYRAAGEQEKLEATNRYHMPKETRGQPARAVDLVEEESGAPGEEQRRWEEARLGAASLKFGARDAASQEPKYQLVLEEEETIEFVRATQLQGDEEPSAPPTSTQAQQKESIQAVRRSLPVFPFREELLAAIANHQVLIIEGETGSGKTTQIPQYLFEEGYTNKGMKIACTQPRRVAAMSVAARVAREMGVKLGNEVGYSIRFEDCTSERTVLRYMTDGMLLREFLSEPDLASYSVVMVDEAHERTLHTDILFGLIKDVARFRPELKVLVASATMDTARFSTFFDDAPVFRIPGRRFPVDIFYTKAPEADYLEACVVSVLQIHVTQPPGDILVFLTGQEEIEAACEMLQDRCRRLGSKIRELLVLPIYANLPSDMQARIFQPTPPGARKVVVATNIAETSLTIEGIIYVLDPGFCKQKSYNPRTGMESLTVTPCSKASANQRAGRAGRVAAGKCFRLYTAWAYQHELEETTVPEIQRTSLGNVVLLLKSLGIHDLMHFDFLDPPPYETLLLALEQLYALGALNHLGELTTSGRKMAELPVDPMLSKMILASEKYSCSEEILTVAAMLSVNNSIFYRPKDKVVHADNARVNFFLPGGDHLVLLNVYTQWAESGYSSQWCYENFVQFRSMRRARDVREQLEGLLERVEVGLSSCQGDYIRVRKAITAGYFYHTARLTRSGYRTVKQQQTVFIHPNSSLFEQQPRWLLYHELVLTTKEFMRQVLEIESSWLLEVAPHYYKAKELEDPHAKKMPKKIGKTREELG

target: urokinase plasminogen activator receptor (plasminogen activator, urokinase receptor) (human (endogenous in MDA-MB-231)) (UniProt Q03405); assay: affinity purification with mass spectrometry; co-IP of endogenous uPAR from MDA-MB-231 lysate with polyclonal anti-uPAR antibody (AF807), 60 min at 4°C, protein A/G PLUS beads 15 h at 4°C; polyclonal goat isotype antibody as negative control; Laemmli eluates analysed by LC-MS/MS (LTQ Orbitrap XL)

binding, binds:
B1
B2
B3
B4

target: urokinase plasminogen activator receptor (plasminogen activator, urokinase receptor) (human (endogenous in MDA-MB-231)) (UniProt Q03405); assay: as above; remark: another data set of the same source

binding, binds:
Y-box-binding protein 1 (from UniProt P67809 1-324)
tubulin, alpha 4a (from UniProt P68366-1 1-448)

These are yes or no findings as the source states them, for the method shown. In cells and extracts the contact can be indirect. These calls come from enrichment with a bait or labelling near it, and not all partners need be listed. For part of these data: Where a sequence is shown, tags or fusion partners need not be part of it.
